Results: article doi:10.1101/2023.12.13.571451 (bioRxiv, 2023)
Results are given in words; binding and its absence hold for the method and conditions named. For some of these results: In cells and extracts the contact can be indirect. Some entries that bind do so weakly or less than the wild type. Tags and fused reporters may be left off the sequences shown.

B1: untagged wild-type Tsa1 (endogenous) (protein, UniProt P34760 1-196)
chain: MVAQVQKQAPTFKKTAVVDGVFDEVSLDKYKGKYVVLAFIPLAFTFVCPTEIIAFSEAAKKFEEQGAQVLFASTDSEYSLLAWTNIPRKEGGLGPINIPLLADTNHSLSRDYGVLIEEEGVALRGLFIIDPKGVIRHITINDLPVGRNVDEALRLVEAFQWTDKNGTVLPCNWTPGAATIKPTVEDSKEYFEAANK
B2: Srx1 (sulfiredoxin, endogenous) (enzyme, UniProt P36077 1-127)
chain: MSLQSNSVKPTEIPLSEIRRPLAPVLDPQKIDAMVATMKGIPTASKTCSLEQAEAAASAGELPPVDVLGVRVKGQTLYYAFGGCHRLQAYDRRARETQNAAFPVRCRVLPATPRQIRMYLGSSLDIE

Key:
[1] = molecular target: untagged wild-type Tsa1 (endogenous) (S. cerevisiae) (UniProt P34760); test: non-reducing SDS-PAGE with immunoblot
[2] = molecular target: T1, untagged Cdc19 (pyruvate kinase, endogenous) (S. cerevisiae) (UniProt P00549); test: co-IP
T1 sequence: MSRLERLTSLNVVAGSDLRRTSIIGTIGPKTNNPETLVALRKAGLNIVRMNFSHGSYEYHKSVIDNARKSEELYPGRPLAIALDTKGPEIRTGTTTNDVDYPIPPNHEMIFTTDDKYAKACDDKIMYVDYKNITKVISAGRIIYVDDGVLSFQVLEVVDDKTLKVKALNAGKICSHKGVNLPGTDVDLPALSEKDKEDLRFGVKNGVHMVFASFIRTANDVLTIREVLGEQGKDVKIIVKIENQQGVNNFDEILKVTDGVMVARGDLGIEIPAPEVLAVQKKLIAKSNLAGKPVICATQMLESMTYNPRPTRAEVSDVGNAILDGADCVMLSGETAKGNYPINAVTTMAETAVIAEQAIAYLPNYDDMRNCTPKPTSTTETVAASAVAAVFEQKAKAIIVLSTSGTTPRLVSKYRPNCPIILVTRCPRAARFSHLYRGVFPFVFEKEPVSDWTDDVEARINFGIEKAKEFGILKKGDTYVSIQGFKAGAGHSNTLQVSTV

[3] = molecular target: T2, Gnd1-V5 (6-phosphogluconate dehydrogenase) (S. cerevisiae) (UniProt P38720); test: co-IP
T2 sequence: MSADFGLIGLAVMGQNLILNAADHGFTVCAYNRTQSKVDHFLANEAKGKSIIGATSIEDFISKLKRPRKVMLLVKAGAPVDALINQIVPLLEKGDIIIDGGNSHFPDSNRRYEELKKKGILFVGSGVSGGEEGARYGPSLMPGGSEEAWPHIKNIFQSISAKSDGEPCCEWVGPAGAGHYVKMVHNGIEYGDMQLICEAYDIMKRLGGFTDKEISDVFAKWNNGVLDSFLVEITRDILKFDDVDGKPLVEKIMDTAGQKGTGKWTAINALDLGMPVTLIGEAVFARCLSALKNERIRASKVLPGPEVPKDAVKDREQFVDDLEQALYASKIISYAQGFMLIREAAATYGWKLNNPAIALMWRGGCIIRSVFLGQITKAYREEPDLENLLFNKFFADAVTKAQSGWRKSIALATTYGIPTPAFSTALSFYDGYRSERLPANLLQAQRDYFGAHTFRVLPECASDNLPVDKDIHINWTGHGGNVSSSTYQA

[4] = molecular target: T3, Tsa1^WT-HA (peroxiredoxin Tsa1, single C-terminal HA tag at the endogenous locus) (S. cerevisiae) (UniProt P34760); test: non-reducing SDS-PAGE with immunoblot
T3 sequence: B1 chain

Binder | binding [1] | binding [2] | binding [3] | binding [4]
B1 | binds | binds | binds | 
B2 |  |  |  | binds
